Publication PMC6322727

Molecular target: T1, FLAG-DGAT2 (diacylglycerol acyltransferase-2) (murine (said of the DGAT2 in BioId/DGAT2)) (UniProt Q9DCV3)
T1 sequence: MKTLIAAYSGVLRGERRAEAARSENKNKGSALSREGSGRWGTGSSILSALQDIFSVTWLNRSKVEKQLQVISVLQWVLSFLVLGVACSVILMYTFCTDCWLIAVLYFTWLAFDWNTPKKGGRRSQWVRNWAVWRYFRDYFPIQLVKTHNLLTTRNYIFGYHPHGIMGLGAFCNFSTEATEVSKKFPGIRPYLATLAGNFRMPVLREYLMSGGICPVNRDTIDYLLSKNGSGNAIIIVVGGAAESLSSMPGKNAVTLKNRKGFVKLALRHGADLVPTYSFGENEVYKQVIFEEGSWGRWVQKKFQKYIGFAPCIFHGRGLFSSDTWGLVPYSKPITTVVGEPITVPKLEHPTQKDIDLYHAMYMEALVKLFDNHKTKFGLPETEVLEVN
Assay: co-IP; anti-FLAG agarose immunoprecipitate of HEK-293T cells expressing FL-DGAT2, solubilised with 0.5% CHAPS in PBS, 4 C, eluted with FLAG peptide; immunoblot with anti-calnexin and anti-PDI; control: cells expressing Myc-DGAT2

“protein disulfide isomerase (human (endogenous in HEK-293T))” was tested, and the binding was “no binding”.

These are yes or no findings as the source states them, for the method shown. Binding seen in cells or lysates may run through a third protein. Where a sequence is shown, tags or fusion partners need not be part of it.
